Reference: patent US12257237B2 (priority 2017, dated 2025)
Where “and” joins values, the source holds several entries; their conditions need not be identical. Equal values may be shown once. Further values from the same series stand in other lists.

Columns and labels:
[1] = test system: DD013 dedifferentiated liposarcoma; experiment: Antitumour activity in DD013 dedifferentiated liposarcoma xenograft model; format: in vivo, Athymic nude mice; settings: EDO80: EDO-S101 80 mg/kg single dose, 80 mg/kg
Description: (§1) Experiments were performed with female Athymic nude mice, 9-10 weeks old obtained from Harlan Laboratories (Udine, Italy). They were maintained under Specific Pathogen Free conditions with constant temperature and humidity, according to the institutional guidelines.
(§2) Tumour growth mice was monitored two/three times a week (depending on tumour growth rate, to avoid unnecessary stress to the animals) by Vernier caliper. Mice were sacrificed when tumour reached a mean weight of 2±0.5 gr. The antitumour activity will be expressed as T/C %, where T and C were the mean tumour weight of treated and control groups, respectively. Mice were monitored daily and weighted at least two times a week. Tolerability was evaluated on the basis of body weight loss (BWL) and clinical observation.
(§3) Statistical analysis was performed with GraphPad Prism version 6.01 software (GraphPad software, Inc., La Jolla, CA, USA). ANOVA test was performed to evaluate if there were statistically significant differences between treated and control groups.
Briefly, xenografts were obtained by transplanting 3-4 mm tumour fragments s.c. in the flanks of mice. The growing tumour masses were measured with the aid of a Vernier caliper, and the tumour weights (TW, 1 mm^3=1 mg) were calculated by the formula: length×(width) 2/2. When tumour load achieved about 200-400 mg, mice were randomized into the experimental groups.

[2] = test system: TC-71 Ewing sarcoma; experiment: Antitumour activity in TC-71 Ewing sarcoma xenograft model; format: in vivo, Athymic nude mice
Description: as §1, §2, §3
5×10^6 TC-71 cells were inoculated subcutaneously in the right flank of mice. The growing tumour masses were measured with the aid of a Vernier caliper, and the tumour weights (1 mm^3=1 mg) were calculated by the formula: length×(width) 2/2. When tumour load achieved about 100 mg, mice were randomized into the experimental groups and treatment started.

## Cn1c(CCCCCCC(=O)NO)nc2cc(N(CCCl)CCCl)ccc21 [EDO-S101, 7-(5-(bis(2-chloroethyl)amino)-1-methyl-1H-benzo[d]imidazol-2-yl)-N-hydroxyheptanamide]
[1]; day 40 from inoculum
  DD0113 tumour weight, individual mouse: 257.3 mg and 140.9 mg and 130.0 mg and 119.3 mg
[1]; day 43 from inoculum
  DD0113 tumour weight, individual mouse: 284.6 mg and 164.8 mg and 116.9 mg and 109.5 mg
[1]; day 47 from inoculum
  DD0113 tumour weight, individual mouse: 335.7 mg and 167.6 mg and 97.1 mg and 132.0 mg
[1]; day 50 from inoculum
  DD0113 tumour weight, individual mouse: 416.1 mg and 184.9 mg and 91.6 mg and 171.9 mg
[1]; day 54 from inoculum
  DD0113 tumour weight, individual mouse: 708.8 mg and 836.1 mg and 469.2 mg and 456.3 mg and 339.2 mg and 434.6 mg and 213.4 mg and 125.8 mg and 186.9 mg
[1]; day 58 from inoculum
  DD0113 tumour weight, individual mouse: 920.2 mg and 863.6 mg and 593.4 mg and 628.6 mg and 525.3 mg and 442.9 mg and 248.6 mg and 167.1 mg and 212.9 mg
[1]; day 62 from inoculum
  DD0113 tumour weight, individual mouse: 943.1 mg and 970.6 mg and 633.0 mg and 680.2 mg and 527.0 mg and 583.0 mg and 199.9 mg and 187.7 mg and 219.1 mg
[1]; day 65 from inoculum
  DD0113 tumour weight, individual mouse: 1025.7 mg and 939.0 mg and 636.4 mg and 670.6 mg and 491.0 mg and 567.8 mg and 201.7 mg and 107.7 mg and 222.7 mg
[1]; day 69 from inoculum
  DD0113 tumour weight, individual mouse: 1144.1 mg and 909.3 mg and 591.5 mg and 550.9 mg and 478.8 mg and 587.8 mg and 164.5 mg and 146.5 mg and 211.1 mg
[1]; day 75 from inoculum
  DD0113 tumour weight, individual mouse: 1250.1 mg and 779.7 mg and 675.2 mg and 634.0 mg and 567.6 mg and 519.9 mg and 185.4 mg and 158.8 mg and 277.5 mg
[1]; day 79 from inoculum
  DD0113 tumour weight, individual mouse: 1330.0 mg and 618.2 mg and 650.1 mg and 690.9 mg and 573.1 mg and 621.4 mg and 212.9 mg and 135.0 mg and 245.2 mg
[1]; day 83 from inoculum
  DD0113 tumour weight, individual mouse: 1450.9 mg and 575.5 mg and 509.7 mg and 400.2 mg and 507.9 mg and 115.7 mg and 117.9 mg and 122.5 mg
[1]; day 87 from inoculum
  DD0113 tumour weight, individual mouse: 1616.4 mg and 647.4 mg and 823.3 mg and 496.0 mg and 665.8 mg and 136.4 mg and 195.7 mg and 171.6 mg
[1]; day 90 from inoculum
  DD0113 tumour weight, individual mouse: 1617.7 mg and 735.1 mg and 987.9 mg and 466.5 mg and 740.1 mg and 153.4 mg and 227.0 mg and 182.9 mg
[1]; day 94 from inoculum
  DD0113 tumour weight, individual mouse: 2114.0 mg and 1048.7 mg and 1242.6 mg and 555.8 mg and 814.4 mg and 240.1 mg and 306.5 mg and 285.8 mg
[1]; day 98 from inoculum
  DD0113 tumour weight, individual mouse: 2225.7 mg and 1385.7 mg and 1194.7 mg and 782.4 mg and 918.1 mg and 164.4 mg and 464.1 mg and 282.5 mg
[1]; day 100 from inoculum
  DD0113 tumour weight, individual mouse: 3065.0 mg and 1722.4 mg and 1733.1 mg and 996.2 mg and 1052.7 mg and 303.2 mg and 413.3 mg and 392.7 mg
[1]; day 103 from inoculum
  DD0113 tumour weight, individual mouse: 2981.4 mg and 1979.3 mg and 1845.5 mg and 1231.1 mg and 1125.6 mg and 320.3 mg and 529.9 mg and 396.4 mg
[2]; EDO40: 40 mg/kg i.v. q7dx3, day 9 from inoculum
  TC-71 tumour weight, individual mice: 210.6 mg and 147.7 mg and 112.5 mg and 110.5 mg and 85.6 mg and 72.3 mg and 51.9 mg and 37.4 mg
[2]; EDO40: 40 mg/kg i.v. q7dx3, day 11 from inoculum
  TC-71 tumour weight, individual mice: 398.0 mg and 222.8 mg and 185.7 mg and 145.9 mg and 159.8 mg and 110.1 mg and 40.4 mg
[2]; EDO40: 40 mg/kg i.v. q7dx3, day 14 from inoculum
  TC-71 tumour weight, individual mice: 482.6 mg and 244.5 mg and 150.6 mg and 130.2 mg and 133.7 mg and 93.9 mg and 28.7 mg
[2]; EDO40: 40 mg/kg i.v. q7dx3, day 16 from inoculum
  TC-71 tumour weight, individual mice: 732.9 mg and 274.3 mg and 208.5 mg and 127.4 mg and 129.2 mg and 151.1 mg and 31.8 mg
[2]; EDO40: 40 mg/kg i.v. q7dx3, day 18 from inoculum
  TC-71 tumour weight, individual mice: 1028.4 mg and 437.5 mg and 227.9 mg and 176.0 mg and 114.7 mg and 225.3 mg and 25.7 mg
[2]; EDO40: 40 mg/kg i.v. q7dx3, day 21 from inoculum
  TC-71 tumour weight, individual mice: 1377.1 mg and 312.3 mg and 174.8 mg and 194.1 mg and 132.0 mg and 217.6 mg and 30.6 mg
[2]; EDO40: 40 mg/kg i.v. q7dx3, day 23 from inoculum
  TC-71 tumour weight, individual mice: 1901.8 mg and 377.8 mg and 329.7 mg and 273.0 mg and 220.8 mg and 458.2 mg and 39.9 mg
[2]; EDO40: 40 mg/kg i.v. q7dx3, day 25 from inoculum
  TC-71 tumour weight, individual mice: 1964.4 mg and 473.5 mg and 349.6 mg and 257.3 mg and 299.0 mg and 456.3 mg and 35.8 mg
[2]; EDO40: 40 mg/kg i.v. q7dx3, day 28 from inoculum
  TC-71 tumour weight, individual mice: 2668.1 mg and 420.1 mg and 515.7 mg and 405.6 mg and 505.4 mg and 570.1 mg and 51.6 mg
[2]; EDO40: 40 mg/kg i.v. q7dx3, day 30 from inoculum
  TC-71 tumour weight, individual mice: 3428.9 mg and 513.3 mg and 927.1 mg and 763.7 mg and 793.9 mg and 827.6 mg and 134.4 mg
[2]; EDO40: 40 mg/kg i.v. q7dx3, day 32 from inoculum
  TC-71 tumour weight, individual mice: 3598.6 mg and 650.1 mg and 1375.3 mg and 1254.2 mg and 1384.8 mg and 1164.4 mg and 205.0 mg
[2]; EDO60: 60 mg/kg i.v. q7dx3, day 9 from inoculum
  TC-71 tumour weight, individual mice: 304.5 mg and 124.5 mg and 100.8 mg and 87.5 mg and 82.1 mg and 70.7 mg and 52.7 mg and 26.2 mg
[2]; EDO60: 60 mg/kg i.v. q7dx3, day 11 from inoculum
  TC-71 tumour weight, individual mice: 394.6 mg and 149.3 mg and 134.2 mg and 64.9 mg and 141.3 mg and 60.8 mg and 70.8 mg and 26.9 mg
[2]; EDO60: 60 mg/kg i.v. q7dx3, day 14 from inoculum
  TC-71 tumour weight, individual mice: 307.3 mg and 81.3 mg and 71.3 mg and 29.0 mg and 51.6 mg and 20.5 mg and 32.0 mg and 16.1 mg
[2]; EDO60: 60 mg/kg i.v. q7dx3, day 18 from inoculum
  TC-71 tumour weight, individual mice: 122.1 mg and 9.6 mg and 29.0 mg and 6.2 mg and 12.2 mg and 3.4 mg (2×) and 7.9 mg
[2]; EDO60: 60 mg/kg i.v. q7dx3, day 21 from inoculum
  TC-71 tumour weight, individual mice: 77.3 mg and 2.1 mg and 17.0 mg and 3.3 mg (2×) and 5.5 mg and 3.6 mg and 0.7 mg
[2]; EDO60: 60 mg/kg i.v. q7dx3, day 23 from inoculum
  TC-71 tumour weight, individual mice: 108.1 mg and 0.4 mg and 31.9 mg and 5.7 mg and 0.6 mg (2×) and 2.1 mg and 3.3 mg
[2]; EDO60: 60 mg/kg i.v. q7dx3, day 25 from inoculum
  TC-71 tumour weight, individual mice: 94.0 mg and 1.1 mg and 48.5 mg and 5.7 mg and 9.0 mg and 3.2 mg and 1.3 mg
[2]; EDO60: 60 mg/kg i.v. q7dx3, day 28 from inoculum
  TC-71 tumour weight, individual mice: 66.2 mg and 28.4 mg and 13.6 mg and 3.3 mg and 2.9 mg
[2]; EDO60: 60 mg/kg i.v. q7dx3, day 30 from inoculum
  TC-71 tumour weight, individual mice: 88.0 mg and 77.1 mg and 41.0 mg and 8.9 mg and 3.7 mg
[2]; EDO60: 60 mg/kg i.v. q7dx3, day 32 from inoculum
  TC-71 tumour weight, individual mice: 195.4 mg and 161.5 mg and 185.8 mg and 37.0 mg and 17.2 mg
[2]; EDO60: 60 mg/kg i.v. q7dx3, day 35 from inoculum
  TC-71 tumour weight, individual mice: 295.9 mg and 201.8 mg and 224.9 mg and 41.1 mg and 11.6 mg
[2]; EDO60: 60 mg/kg i.v. q7dx3, day 42 from inoculum
  TC-71 tumour weight, individual mice: 562.9071 mg and 681.301 mg and 589.6573 mg and 113.6766 mg and 36 mg
[2]; EDO60: 60 mg/kg i.v. q7dx3, day 45 from inoculum
  TC-71 tumour weight, individual mice: 889.1 mg and 725.2 mg and 1089.8 mg and 246.5 mg and 56.1 mg
[2]; EDO60: 60 mg/kg i.v. q7dx3, day 49 from inoculum
  TC-71 tumour weight, individual mice: 971.4 mg and 858.8 mg and 1414.8 mg and 475.3 mg and 102.8 mg and 29.0 mg
[2]; EDO60: 60 mg/kg i.v. q7dx3, day 53 from inoculum
  TC-71 tumour weight, individual mice: 1459.1 mg and 1050.5 mg and 2074.7 mg and 623.0 mg and 179.3 mg and 50.8 mg
[2]; EDO60: 60 mg/kg i.v. q7dx3, day 56 from inoculum
  TC-71 tumour weight, individual mice: 2228.2 mg and 2084.3 mg and 2978.8 mg and 1546.2 mg and 380.7 mg and 76.2 mg
[2]; EDO80: 80 mg/kg i.v. single dose, day 28 from inoculum
  TC-71 tumour weight, individual mice: 4.8 mg and 4.6 mg
[2]; EDO80: 80 mg/kg i.v. single dose, day 30 from inoculum
  TC-71 tumour weight, individual mice: 9.7 mg and 23.2 mg
[2]; EDO80: 80 mg/kg i.v. single dose, day 32 from inoculum
  TC-71 tumour weight, individual mice: 67.8 mg and 56.2 mg
[2]; EDO80: 80 mg/kg i.v. single dose, day 35 from inoculum
  TC-71 tumour weight, individual mice: 68.2 mg and 74.5 mg
[2]; EDO80: 80 mg/kg i.v. single dose, day 38 from inoculum
  TC-71 tumour weight, individual mice: 43.4 mg and 75.1 mg
[2]; EDO80: 80 mg/kg i.v. single dose, day 42 from inoculum
  TC-71 tumour weight, individual mice: 211.3 mg and 191.6 mg
[2]; EDO80: 80 mg/kg i.v. single dose, day 45 from inoculum
  TC-71 tumour weight, individual mice: 359.3 mg and 378.9 mg
[2]; EDO80: 80 mg/kg i.v. single dose, day 49 from inoculum
  TC-71 tumour weight, individual mice: 622.1 mg and 803.9 mg and 515.2 mg
